# According to the supplement of paper PMC3334620:
# In all, about 33,000 sequences were measured (“E-score (-0.5 to 0.5)”: median about -0.016, highest 2% from about 0.3 on). Some of the results follow.
# Target: T1, Yer184c (UniProt P39961)
# T1 sequence: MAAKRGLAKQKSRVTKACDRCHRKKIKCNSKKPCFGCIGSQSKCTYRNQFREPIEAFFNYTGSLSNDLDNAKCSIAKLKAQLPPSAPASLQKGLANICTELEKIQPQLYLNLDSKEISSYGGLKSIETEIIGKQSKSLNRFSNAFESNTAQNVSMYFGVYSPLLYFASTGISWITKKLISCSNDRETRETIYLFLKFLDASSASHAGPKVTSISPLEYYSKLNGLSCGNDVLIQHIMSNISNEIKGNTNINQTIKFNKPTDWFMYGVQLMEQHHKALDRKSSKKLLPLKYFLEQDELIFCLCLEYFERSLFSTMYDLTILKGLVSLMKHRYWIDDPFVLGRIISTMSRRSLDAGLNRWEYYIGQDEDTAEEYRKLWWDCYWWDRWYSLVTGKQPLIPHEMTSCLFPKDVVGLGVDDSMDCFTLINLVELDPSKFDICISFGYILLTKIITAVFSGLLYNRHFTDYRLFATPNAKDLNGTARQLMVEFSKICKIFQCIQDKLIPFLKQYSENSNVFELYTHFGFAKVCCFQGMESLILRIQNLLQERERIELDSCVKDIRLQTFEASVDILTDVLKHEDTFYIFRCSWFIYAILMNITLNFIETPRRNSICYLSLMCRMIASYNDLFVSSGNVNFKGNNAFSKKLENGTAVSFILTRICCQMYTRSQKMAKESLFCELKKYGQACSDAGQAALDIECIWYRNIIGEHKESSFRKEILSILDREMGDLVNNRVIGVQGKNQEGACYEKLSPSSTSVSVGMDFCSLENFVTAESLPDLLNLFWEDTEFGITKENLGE
# Assay: PBM E-score (8-mer binding enrichment) (E-score (-0.5 to 0.5)); higher = stronger / more preferred TF binding
# Conditions: protein concentration: 100 nM; construct: GST-full length
# In short: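 Using PURExpress in vitro transcription/translation, GST-tagged yeast transcription factors were made in full-length or DNA-binding-domain form. These were applied at about 100-200 nM to double-stranded universal all-10-mer Agilent arrays, and bound protein was detected with fluorescent anti-GST. Scans were normalised with masliner before the Universal PBM Analysis Suite assigned E-scores to ungapped eight-base words pooled with their reverse complements.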
row,Sequence,PBM E-score
1,CTCATTCC,0.0371
2,ACATACCA,-0.12
3,GGTCGGGA,0.0925
4,ATTGCGGG,0.0878
5,AACGTTAT,0.00561
6,CCGGATCG,0.352
7,ACGTAACT,-0.229
8,TAATTGCA,0.125
9,GTCTTGTA,-0.118
10,ATCTGGCC,-0.166
11,ATACCGCC,0.102
12,GTCTAGAC,-0.31
13,CCTCCCAC,-0.166
14,TAATGGTA,0.0249
15,TAGTAACA,0.167
16,AAATTGTA,0.154
17,CCCCAAGA,-0.15
18,ACGAGTTA,0.0904
19,GCAGCTTA,-0.0551
20,CGCTATTC,0.12
21,ATTGTATG,0.0232
22,AATGCCTC,-0.22
23,CAGCCGTC,0.151
24,TCAAACGA,0.116

# Part of the list above, tab-delimited:
row	Sequence	PBM E-score
1	CTCATTCC	0.0371
16	AAATTGTA	0.154
19	GCAGCTTA	-0.0551

# For convenience, some entries already given:
row,Sequence,PBM E-score
16,AAATTGTA,0.154
17,CCCCAAGA,-0.15
18,ACGAGTTA,0.0904
19,GCAGCTTA,-0.0551

# Going on with the list.

row,Sequence,PBM E-score
1,GACATATA,0.219
2,AGGCCCCT,-0.392
3,CATTTTAC,0.109
4,ATTCATTC,0.127
5,TACTGCGA,-0.129
6,CACGGACA,0.228
7,GAGACTTA,-0.0781
8,AGACATCC,-0.103
9,AGCCATAA,-0.0029
10,CTCCATGA,0.00856
11,AAGCGTAA,-0.0217
12,CTTATGCA,0.0296
13,GTAAGTAC,0.0583
14,AGGTTCTC,-0.0203
15,CTTCGGCA,0.333
16,ACCAAATC,-0.0394
17,AGATTACC,0.0667
18,CCACCCAC,-0.126
19,AGTGAGGC,-0.0996
20,GCCTGCTA,-0.0406
21,AGCACGAA,0.176
22,ACTCTTCC,0.0111
23,CGATGGAA,0.0585
24,AACACTGG,-0.0633

row,Sequence,PBM E-score
1,ATTCATCA,-0.0169
2,ACAGCCAG,0.00409
3,GAAGACCA,0.0223
4,ATAAGAGC,0.055
5,GAGTAGAA,-0.00024
6,ACGCGGCC,-0.0466
7,CGGAAGGC,0.0723
8,AGGTAGTA,-0.00581
9,CAGCCCGA,-0.16
10,ACGCAGCG,-0.153
11,GTATGTCA,0.00836
12,GAGCAGCC,-0.136
13,CCTGCTAA,-0.119
14,GCGCACCA,-0.0536
15,AGCCGTAA,0.285
16,TCTAAACA,0.0276
17,AAGAGGAT,-0.266
18,ACAAGATC,0.119
19,CTATGCAG,-0.0128
20,AAAATTGT,0.201
21,AGGAACAC,0.161
22,ATGCGACG,-0.12
23,AGTCATTC,-0.0943
24,CTTACGAA,0.0913

row,Sequence,PBM E-score
1,GAGGGCAA,-0.0172
2,TACTGGCA,-0.149
3,CACCTAGA,-0.251
4,TACTCGGA,0.287
5,AACCTACA,0.142
6,CCCGGGAG,0.253
7,CAGTACAC,0.00699
8,CTACATCC,0.00687
9,CATAAGTC,-0.0307
10,AATAGTGC,0.122
11,GGACGTCC,-0.063
12,CCCCAACC,-0.231
13,GACGTGCC,-0.235
14,TCCCTGCA,-0.138
15,ATGGCCTA,-0.203
16,AGGGGGTC,-0.39
17,GTTGAGAA,0.0483
18,ATTAACGG,0.23
19,ACTGCTCT,-0.114
20,GTACTGCA,0.0335
21,GTGTCAGA,0.125
22,GACCAATC,0.00517
